Reference: the supplement of paper PMC6078165
The reference is the same well before dosing, and untreated signal decays as well.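 Labels refer to human fibroblasts, largely primary: uterine (C12385, HUF), lung (H6013), bone (Hs27A), adrenal (HADF), skin (WS1), plus mammary HMF and breast cancer-associated Hs343T. Cancer lines are basal-like or mesenchymal-like triple-negative breast cancer. The paper counts as hits responses shifting over 3x the replicate standard deviation. The tissue of the other fibroblasts is not given here.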

Test system: MDAMB231
Test: relative JC-1 red fluorescence (viability) vs pre-drug, coculture with fibroblast (fraction); higher = more viable cancer cells
Procedure: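 JC-1 labelled TNBC cells cocultured 1:1 (1,500 cells each) with CellTrace Violet stained primary or stromal fibroblasts in 384-well plates in FluoroBrite medium, treated with one of 42 anticancer drugs at 0.1, 1, 10 or 100 uM. JC-1 red fluorescence (mitochondrial integrity in cancer cells only) was read by plate reader every 8 h for 72 h. Values are normalised to each well's pre-drug value. The stock of one drug was tenfold lower, so its dose labels may be too high.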

O=C1c2c(O)ccc(O)c2C(=O)c2c(NCCNCCO)ccc(NCCNCCO)c21 [Mitoxantrone]
relative JC-1 red fluorescence
Conditions | 8 h | 16 h | 24 h | 32 h | 40 h | 48 h | 56 h | 64 h | 72 h
0.1 µM, coculture fibroblast: C12385 | 0.698 | 0.6964 | 0.575 | 0.6114 | 0.5631 | 0.5293 | 0.49 | 0.4774 | 0.4573
0.1 µM, coculture fibroblast: H6013 | 0.845 | 0.804 | 0.769 | 0.754 | 0.718 | 0.697 | 0.684 | 0.658 | 0.621
0.1 µM, coculture fibroblast: H6019 | 0.7196 | 0.664 | 0.604 | 0.597 | 0.5522 | 0.541 | 0.497 | 0.495 | 0.4652
0.1 µM, coculture fibroblast: H6076 | 0.8734 | 0.774 | 0.715 | 0.70672 | 0.682 | 0.663 | 0.64 | 0.635 | 0.636
0.1 µM, coculture fibroblast: H6231 | 0.878 | 0.795 | 0.729 | 0.687 | 0.6401 | 0.6124 | 0.5661 | 0.55 | 0.519
0.1 µM, coculture fibroblast: HADF | 0.83542 | 0.786 | 0.771 | 0.757 | 0.735 | 0.701 | 0.695 | 0.673 | 0.628
0.1 µM, coculture fibroblast: HCFa | 0.8265 | 0.756 | 0.714 | 0.699 | 0.672 | 0.629 | 0.6 | 0.567 | 0.523
0.1 µM, coculture fibroblast: HCPF | 0.844 | 0.746 | 0.6736 | 0.6662 | 0.606 | 0.574 | 0.543 | 0.519 | 0.508
0.1 µM, coculture fibroblast: HHSteC | 0.8388 | 0.789 | 0.756 | 0.723 | 0.696 | 0.666 | 0.629 | 0.6 | 0.559
0.1 µM, coculture fibroblast: HMF | 0.833 | 0.74 | 0.682 | 0.663 | 0.623 | 0.595 | 0.562 | 0.546 | 0.535
0.1 µM, coculture fibroblast: HPFa | 0.8765 | 0.8529 | 0.796 | 0.772 | 0.756 | 0.732 | 0.68 | 0.647 | 0.595
0.1 µM, coculture fibroblast: HUF | 0.803 | 0.723 | 0.726 | 0.628 | 0.583 | 0.568 | 0.521 | 0.513 | 0.499
0.1 µM, coculture fibroblast: Hs5 | 0.874 | 0.817 | 0.798 | 0.773 | 0.752 | 0.707 | 0.686 | 0.668 | 0.659
0.1 µM, coculture fibroblast: Hs27A | 0.834 | 0.7802 | 0.754 | 0.748 | 0.714 | 0.6613 | 0.675 | 0.662 | 0.633
0.1 µM, coculture fibroblast: Hs343T | 0.8629 | 0.77 | 0.725 | 0.709 | 0.679 | 0.641 | 0.605 | 0.588 | 0.568
0.1 µM, coculture fibroblast: WS1 | 0.713 | 0.713 | 0.613 | 0.631 | 0.614 | 0.595 | 0.544 | 0.526 | 0.506
1 µM, coculture fibroblast: C12385 | 0.419 | 0.42 | 0.464 | 0.452 | 0.372 | 0.295 | 0.294 | 0.326 | 0.326
1 µM, coculture fibroblast: H6013 | 0.544 | 0.5213 | 0.518 | 0.52 | 0.525 | 0.51 | 0.51 | 0.501 | 0.462
1 µM, coculture fibroblast: H6019 | 0.448 | 0.4331 | 0.454 | 0.4571 | 0.44063 | 0.4207 | 0.4 | 0.406 | 0.383
1 µM, coculture fibroblast: H6076 | 0.6857 | 0.644 | 0.675 | 0.698 | 0.687 | 0.664 | 0.6562 | 0.628 | 0.614
1 µM, coculture fibroblast: H6231 | 0.694 | 0.599 | 0.635 | 0.648 | 0.647 | 0.643 | 0.617 | 0.604 | 0.584
1 µM, coculture fibroblast: HADF | 0.506 | 0.472 | 0.481 | 0.47 | 0.47 | 0.463 | 0.459 | 0.466 | 0.431
1 µM, coculture fibroblast: HCFa | 0.568 | 0.565 | 0.589 | 0.586 | 0.597 | 0.582 | 0.576 | 0.565 | 0.526
1 µM, coculture fibroblast: HCPF | 0.676 | 0.585 | 0.598 | 0.612 | 0.6038 | 0.586 | 0.574 | 0.556 | 0.548
1 µM, coculture fibroblast: HHSteC | 0.591 | 0.6 | 0.611 | 0.609 | 0.629 | 0.63 | 0.617 | 0.623 | 0.592
1 µM, coculture fibroblast: HMF | 0.66685 | 0.587 | 0.621 | 0.651 | 0.654 | 0.649 | 0.651 | 0.645 | 0.64
1 µM, coculture fibroblast: HPFa | 0.585 | 0.563 | 0.565 | 0.57 | 0.583 | 0.572 | 0.552 | 0.553 | 0.52
1 µM, coculture fibroblast: HUF | 0.503 | 0.45 | 0.518 | 0.465 | 0.457 | 0.453 | 0.43 | 0.438 | 0.425
1 µM, coculture fibroblast: Hs5 | 0.7035 | 0.6612 | 0.6666 | 0.6577 | 0.647 | 0.606 | 0.584 | 0.578 | 0.549
1 µM, coculture fibroblast: Hs27A | 0.583 | 0.565 | 0.595 | 0.601 | 0.604 | 0.586 | 0.598 | 0.603 | 0.564
1 µM, coculture fibroblast: Hs343T | 0.682 | 0.573 | 0.575 | 0.5758 | 0.553 | 0.52 | 0.487 | 0.47 | 0.449
1 µM, coculture fibroblast: WS1 | 0.4197 | 0.397 | 0.436 | 0.416 | 0.409 | 0.393 | 0.386 | 0.4 | 0.386
10 µM, coculture fibroblast: C12385 | 0.0974 | 0.0608 | 0.0746 | 0.0578 | 0.0415 | 0.0642 | 0.0571 | 0.0495 | 0.0472
10 µM, coculture fibroblast: H6013 | 0.437 | 0.416 | 0.428 | 0.53 | 0.538 | 0.575 | 0.53 | 0.488 | 0.397
10 µM, coculture fibroblast: H6019 | 0.145 | 0.141 | 0.1817 | 0.112 | 0.0809 | 0.0666 | 0.0471 | 0.043 | 0.0163
10 µM, coculture fibroblast: H6076 | 0.572 | 0.5273 | 0.541 | 0.586 | 0.601 | 0.557 | 0.501 | 0.435 | 0.372
10 µM, coculture fibroblast: H6231 | 0.51 | 0.393 | 0.354 | 0.394 | 0.384 | 0.439 | 0.432 | 0.433 | 0.377
10 µM, coculture fibroblast: HADF | 0.33 | 0.2823 | 0.271 | 0.34 | 0.391 | 0.47 | 0.463 | 0.455 | 0.376
10 µM, coculture fibroblast: HCFa | 0.371 | 0.3417 | 0.3353 | 0.358 | 0.4039 | 0.461 | 0.51 | 0.517 | 0.454
10 µM, coculture fibroblast: HCPF | 0.587 | 0.481 | 0.417 | 0.417 | 0.42 | 0.417 | 0.417 | 0.396 | 0.357
10 µM, coculture fibroblast: HHSteC | 0.414 | 0.404 | 0.401 | 0.479 | 0.542 | 0.554 | 0.545 | 0.509 | 0.409
10 µM, coculture fibroblast: HMF | 0.535 | 0.423 | 0.425 | 0.46 | 0.452 | 0.41 | 0.4 | 0.373 | 0.332
10 µM, coculture fibroblast: HPFa | 0.378 | 0.38 | 0.358 | 0.413 | 0.4744 | 0.529 | 0.511 | 0.514 | 0.435
10 µM, coculture fibroblast: HUF | 0.158 | 0.117 | 0.182 | 0.101 | 0.104 | 0.114 | 0.0753 | 0.0659 | 0.0401
10 µM, coculture fibroblast: Hs5 | 0.562 | 0.508 | 0.511 | 0.544 | 0.564 | 0.513 | 0.465 | 0.374 | 0.281
10 µM, coculture fibroblast: Hs27A | 0.458 | 0.433 | 0.456 | 0.534 | 0.678 | 0.746 | 0.748 | 0.678 | 0.571
10 µM, coculture fibroblast: Hs343T | 0.547 | 0.464 | 0.4493 | 0.492 | 0.484 | 0.463 | 0.43 | 0.395 | 0.359
10 µM, coculture fibroblast: WS1 | 0.141 | 0.09 | 0.111 | 0.0678 | 0.0704 | 0.0627 | 0.0469 | 0.0588 | 0.0341
